Assay [1] addresses TRAIL Death Receptor 5 (DR5) (human (endogenous in A549)) (UniProt O14763). Put plainly: co-IP; anti-DR5 immunoprecipitation from lysates of A549 cells transiently overexpressing myc-Hsp70, treated with vehicle (DMSO) or with 50 uM apigenin for 18 h then 100 ng/ml TRAIL for 6 h; blots as in Fig. 5a.
Assay [2] has the same target. The assay is described as follows: co-IP; anti-DR5 immunoprecipitation from lysates of A549 cells without apigenin (DMSO, or 100 ng/ml TRAIL for 6 h); NP-40 buffer with 20 mM Tris-Cl, 150 mM NaCl, 1% NP-40, 10% glycerol; blots with anti-Hsp70, anti-caspase-8, anti-FADD and anti-DR5.
Assay [3] shares this target. The assay is described as follows: co-IP; anti-DR5 immunoprecipitation from lysates of A549 cells pretreated with 50 uM apigenin for 18 h, then 25 or 100 ng/ml TRAIL or DMSO for 6 h; NP-40 buffer with 20 mM Tris-Cl, 150 mM NaCl, 1% NP-40, 10% glycerol; blots with anti-Hsp70, anti-caspase-8, anti-FADD and anti-DR5.

By UniProt entry, the sequences of proteins in these tests, tags left out. Residues count along the entry.
UniProt O14763, residues 56-440: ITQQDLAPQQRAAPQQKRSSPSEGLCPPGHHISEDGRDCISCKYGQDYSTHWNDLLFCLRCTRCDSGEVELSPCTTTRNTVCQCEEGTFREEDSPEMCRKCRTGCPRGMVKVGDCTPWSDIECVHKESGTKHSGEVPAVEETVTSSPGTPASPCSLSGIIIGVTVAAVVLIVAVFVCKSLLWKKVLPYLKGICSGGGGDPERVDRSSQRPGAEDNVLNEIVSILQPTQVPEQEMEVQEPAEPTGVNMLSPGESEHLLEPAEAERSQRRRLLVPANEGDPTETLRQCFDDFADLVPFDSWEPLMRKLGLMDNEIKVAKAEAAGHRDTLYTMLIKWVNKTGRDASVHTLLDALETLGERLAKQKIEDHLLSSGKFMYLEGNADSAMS
UniProt Q13158: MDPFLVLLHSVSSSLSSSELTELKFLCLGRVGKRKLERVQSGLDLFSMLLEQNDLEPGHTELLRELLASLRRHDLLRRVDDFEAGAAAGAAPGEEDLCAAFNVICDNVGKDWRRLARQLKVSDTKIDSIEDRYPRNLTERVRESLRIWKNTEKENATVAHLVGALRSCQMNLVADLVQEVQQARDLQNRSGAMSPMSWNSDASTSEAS
UniProt Q14790: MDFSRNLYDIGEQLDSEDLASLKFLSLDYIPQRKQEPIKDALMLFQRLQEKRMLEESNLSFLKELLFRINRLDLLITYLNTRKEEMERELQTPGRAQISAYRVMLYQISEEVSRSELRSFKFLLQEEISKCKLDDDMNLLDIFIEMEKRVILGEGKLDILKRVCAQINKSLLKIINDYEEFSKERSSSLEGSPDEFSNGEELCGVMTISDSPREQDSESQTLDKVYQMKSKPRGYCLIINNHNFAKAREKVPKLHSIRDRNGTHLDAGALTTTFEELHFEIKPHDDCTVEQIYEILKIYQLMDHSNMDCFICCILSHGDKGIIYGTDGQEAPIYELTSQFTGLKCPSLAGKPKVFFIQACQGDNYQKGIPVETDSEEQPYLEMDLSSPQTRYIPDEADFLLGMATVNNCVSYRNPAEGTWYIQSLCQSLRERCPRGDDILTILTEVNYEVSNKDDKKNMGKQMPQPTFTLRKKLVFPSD

No constants are given. Whether binding was seen depends on the method and setting. In cells and extracts the contact can be indirect. Some results given as binding are weak or reduced against the parent protein; the word gives no strength.

Regarding “Fas-Associated Death Domain (FADD) (from UniProt Q13158 1-208)”, the binding result was “binds” in assay [1], “binds weakly” in assay [2] and “binds” in assay [3].
Consider “caspase-8 (from UniProt Q14790 1-479) (enzyme)”, for which the binding entry in assay [2] was “binds weakly”.
